These are yes or no findings as the source states them, for the method shown. In cells and extracts the contact can be indirect. Some entries that bind do so weakly or less than the wild type.
B1: Nuclear factor-erythroid 2-related factor 2 (Nrf2) (protein, UniProt Q16236 1-605)
chain: MMDLELPPPGLPSQQDMDLIDILWRQDIDLGVSREVFDFSQRRKEYELEKQKKLEKERQEQLQKEQEKAFFAQLQLDEETGEFLPIQPAQHIQSETSGSANYSQVAHIPKSDALYFDDCMQLLAQTFPFVDDNEVSSATFQSLVPDIPGHIESPVFIATNQAQSPETSVAQVAPVDLDGMQQDIEQVWEELLSIPELQCLNIENDKLVETTMVPSPEAKLTEVDNYHFYSSIPSMEKEVGNCSPHFLNAFEDSFSSILSTEDPNQLTVNSLNSDATVNTDFGDEFYSAFIAEPSISNSMPSPATLSHSLSELLNGPIDVSDLSLCKAFNQNHPESTAEFNDSDSGISLNTSPSVASPEHSVESSSYGDTLLGLSDSEVEELDSAPGSVKQNGPKTPVHSSGDMVQPLSPSQGQSTHVHDAQCENTPEKELPVSPGHRKTPFTKDKHSSRLEAHLTRDELRAKALHIPFPVEKIINLPVVDFNEMMSKEQFNEAQLALIRDIRRRGKNKVAAQNCRKRKLENIVELEQDLDHLKDEKEKLLKEKGENDKSLHLLKKQLSTLYLEVFSMLRDEDGKPYSPSEYSLQQTRDGNVFLVPKSKKPDVKKN

By UniProt entry, the sequences of proteins in these tests, tags left out.
UniProt Q9HCE7: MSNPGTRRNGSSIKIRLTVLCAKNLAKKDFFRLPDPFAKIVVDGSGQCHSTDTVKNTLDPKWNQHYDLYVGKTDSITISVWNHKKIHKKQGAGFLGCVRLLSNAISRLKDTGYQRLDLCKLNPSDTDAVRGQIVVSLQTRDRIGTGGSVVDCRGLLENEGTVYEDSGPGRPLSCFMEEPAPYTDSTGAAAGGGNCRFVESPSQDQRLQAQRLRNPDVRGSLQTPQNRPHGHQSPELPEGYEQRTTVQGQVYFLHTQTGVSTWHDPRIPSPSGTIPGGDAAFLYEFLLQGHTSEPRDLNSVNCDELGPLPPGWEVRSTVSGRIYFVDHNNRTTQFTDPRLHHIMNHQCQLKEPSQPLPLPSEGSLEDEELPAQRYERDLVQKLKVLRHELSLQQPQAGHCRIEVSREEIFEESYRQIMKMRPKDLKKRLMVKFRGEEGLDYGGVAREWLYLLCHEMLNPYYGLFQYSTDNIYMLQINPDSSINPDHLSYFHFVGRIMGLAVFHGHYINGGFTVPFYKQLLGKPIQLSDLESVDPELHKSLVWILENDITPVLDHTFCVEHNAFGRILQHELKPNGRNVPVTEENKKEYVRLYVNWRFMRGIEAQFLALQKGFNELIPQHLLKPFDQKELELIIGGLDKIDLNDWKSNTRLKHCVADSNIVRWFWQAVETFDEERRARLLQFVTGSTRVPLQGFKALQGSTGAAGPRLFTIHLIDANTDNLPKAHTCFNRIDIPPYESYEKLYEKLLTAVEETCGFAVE

Assays:
[1] = target: T1, Nuclear factor-erythroid 2-related factor 2 (Nrf2) (human (endogenous in LF cells)) (UniProt Q16236); assay: co-IP; reciprocal co-IP from LF cell lysate (NP-40 lysis solution); anti-Smurf1 or anti-Nrf2 antibody on Protein A/G beads, overnight at 4°C; western blot with anti-Smurf1 or anti-NRF2 antibodies
T1 sequence: B1 chain

[2] = target: Smurf1 (human (endogenous in LF cells)) (UniProt Q9HCE7); assay: as above

Molecule	binding [1]	binding [2]
Smurf1 (from UniProt Q9HCE7 1-757) (enzyme)	binds	
B1		binds

Reference: publication PMC10118886
